At least one structure is not confirmed: it was looked up by name or label, or the drawing left a doubt.
Experiments:
[1] = test system: IRE1a-mediated XBP1 splicing; test: Target engagement in pancreas and salivary gland (XBP1 splicing RT-qPCR); type: in vivo, mouse; settings: mice, 30 mg/kg oral gavage, 6 hours, compared to control and Compound B
Description: Mice (n=3 per group) were orally gavaged with 30 mg/kg vehicle control or IRE1 inhibitors dissolved in H2O. After 6 hours, mice were euthanized and pancreas and salivary gland tissues were isolated, snap frozen on dry ice, and used for subsequent RT-qPCR analysis of beta-actin, XBP1s and total XBP1. Gene expression was evaluated by quantitative PCR for XBP1s and total XBP1 transcripts using the 2^(−ΔCT) method for calculating normalized gene expression. Gene expression levels were normalized to Actb transcripts. XBP1 splicing is calculated as XBP1s expression divided by total XBP1 expression.

Chains of the proteins cited; added tags and fusions are not shown. Residues count along the entry.
UniProt O75460, 19-977: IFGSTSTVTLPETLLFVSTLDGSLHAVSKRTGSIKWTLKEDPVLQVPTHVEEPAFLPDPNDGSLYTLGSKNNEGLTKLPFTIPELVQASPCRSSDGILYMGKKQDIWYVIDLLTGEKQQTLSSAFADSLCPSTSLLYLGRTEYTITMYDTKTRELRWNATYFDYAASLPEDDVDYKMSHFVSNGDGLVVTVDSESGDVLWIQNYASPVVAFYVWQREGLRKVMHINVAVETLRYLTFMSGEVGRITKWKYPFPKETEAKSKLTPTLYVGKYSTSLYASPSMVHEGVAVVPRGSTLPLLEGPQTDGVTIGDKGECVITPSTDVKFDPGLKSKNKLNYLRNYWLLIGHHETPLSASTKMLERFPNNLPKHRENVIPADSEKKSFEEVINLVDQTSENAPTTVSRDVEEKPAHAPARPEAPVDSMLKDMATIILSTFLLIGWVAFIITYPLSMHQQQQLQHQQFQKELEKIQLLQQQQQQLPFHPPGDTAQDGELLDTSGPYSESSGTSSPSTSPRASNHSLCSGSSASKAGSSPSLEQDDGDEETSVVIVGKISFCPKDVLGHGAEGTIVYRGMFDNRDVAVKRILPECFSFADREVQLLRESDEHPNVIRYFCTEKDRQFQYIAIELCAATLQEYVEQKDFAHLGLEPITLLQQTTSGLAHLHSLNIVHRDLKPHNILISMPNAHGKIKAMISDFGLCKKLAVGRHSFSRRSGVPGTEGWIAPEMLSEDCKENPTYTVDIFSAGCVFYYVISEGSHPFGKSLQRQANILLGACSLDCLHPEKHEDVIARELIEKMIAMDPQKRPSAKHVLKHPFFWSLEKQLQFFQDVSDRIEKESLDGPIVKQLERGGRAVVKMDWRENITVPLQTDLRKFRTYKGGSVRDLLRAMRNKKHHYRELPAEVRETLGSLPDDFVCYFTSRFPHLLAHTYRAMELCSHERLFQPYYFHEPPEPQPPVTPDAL

[2] = test system: IRE1a-dependent XBP1 splicing; test: Inhibition of IRE1a-dependent XBP1 splicing in ovarian cancer cells in vivo; design: species or system mouse; settings: mice with metastatic ovarian cancer, single oral dose 45 mg/kg, 24 hours
Description: Mice (n=3) with established metastatic ovarian cancer were orally gavaged with 45 mg/kg vehicle control or inhibitor dissolved in H2O. The inhibitor was Compound C. Compound C is 2-chloro-N-(5-(2-(((1r,4r)-4-(dimethylamino)cyclohexyl)amino)-8-ethylquinazolin-6-yl)-6-methylpyridin-2-yl)benzenesulfonamide, Compound 91, described herein. After 24 hours, mice were euthanized, ascites-resident cells were extracted and tumor cells, dendritic cells (DCs), and CD4+ T cells were isolated by FACS. The samples were used for subsequent RT-qPCR analysis of beta-actin, XBP1s and total XBP1. Gene expression was evaluated by quantitative PCR for XBP1s and total XBP1 transcripts using the 2^(−ΔCT) method for calculating normalized gene expression. Gene expression levels were normalized to Actb transcripts. XBP1 splicing is calculated as XBP1s expression divided by total XBP1 expression. A single oral dose of Compound C suppressed IRE1a-dependent XBP1 splicing in tumor cells and relevant immune cells in vivo over 24 hours, FIG. 7.
Mice (n=3) with established metastatic ovarian cancer were orally gavaged with 45 mg/kg vehicle control or inhibitor dissolved in H2O. […] Gene expression was evaluated by quantitative PCR for XBP1s and total XBP1 transcripts using the 2^(−ΔCT) method for calculating normalized gene expression. […] XBP1 splicing is calculated as XBP1s expression divided by total XBP1 expression. […]

IRE1a = IRE1a (Homo sapiens, UniProt O75460); test: IRE1a phosphorylation inhibition assay (immunoblot, tunicamycin-treated 293T cells); type: cell-based; design: endogenous in cells; host or cells: 293T cells

## CCc1cc(-c2ccc(NS(=O)(=O)c3ccccc3Cl)nc2C)cc2cnc(N[C@H]3CC[C@H](N(C)C)CC3)nc12 [Compound 91, 2-chloro-N-(5-(2-(((1r,4r)-4-(dimethylamino)cyclohexyl)amino)-8-ethylquinazolin-6-yl)-6-methylpyridin-2-yl)benzenesulfonamide]
[1]
  IRE1a-mediated XBP1 splicing in pancreas and salivary gland: potently suppressed
[2]
  IRE1a-dependent XBP1 splicing in FACS-isolated ascites cells: suppressed
IRE1a
  concentration sufficient to reduce XBP1s protein levels below the limit of detection: 20 nM
IRE1a; pre-incubation with compound
  IRE1a phosphorylation: strongly repressed
  accumulation of XBP1s protein: completely abrogated
